This assay can be described thus: qHTS Assay for Lipid Storage Modulators in Drosophila S3 Cells.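 As to cell number change: cells counted by Cell Tracker Red CMTPX staining in the red channel.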 The conditions noted are these: BODIPY lipid droplet fluorescence, 18-24 h; for cell number change: measured here: cell count max response, cells fed with added oleic acid. An outline of the steps:
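Drosophila S3 cells got compounds at several concentrations plus oleic acid (400 uM solution). Laser-scanning cytometry with 488 nm excitation read lipid droplets at 500-530 nm and cells at 575-640 nm. Percent activity was relative to 20 uM Triacsin C.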

[1] abbreviates: measured here: cell number channel AC50, cells fed with added oleic acid.
The mark [2] stands for this setting: measured here: lipid fluorescence (Fed channel) AC50, cells fed with added oleic acid.

The list shows a part of the results. The main result of the screen is listed elsewhere. These columns were measured beside it and carry no call. The list favours compounds with an active or inconclusive main result. The note in brackets gives the kind of curve behind each potency; many fits are weak.

This note sets out measurements from PubChem BioAssay AID2685 (National Center for Advancing Translational Sciences (NCATS), 2010).

A word on the AC50: it is the concentration at which the activity in the assay is half-maximal.

Take `CC(C)C(NC(=O)c1ccc(Cl)cc1Cl)C(=O)NCCc1ccccn1` (configuration not stated): the cell number change came out at 10%.
On to `COc1cc(/C=N/NC(=O)Cc2csc(C)n2)ccc1OCC(C)C`, for which the cell number change stood at 39.6%. Further, the AC50 under setting [1] is 6.51 µM [rising, single point]. In addition, the AC50 under setting [2] is 6.51 µM [rising, single point].
`O=C(CSc1nnc2ccccn12)NCCN1C(=O)CSC1=O`: the cell number change was -91.5%. The half-maximal activity concentration (AC50) under setting [1] was 14.6 µM [falling, partial curve]. The AC50 under setting [2] was 29.1 µM [falling, single point].
With `CCOC(=O)Cn1c(N2CCCCCC2)nc2c1c(=O)[nH]c(=O)n2C`, the cell number change is -6.51%. In addition, the AC50 under setting [2] is 0.00731 µM [falling, full curve, poor fit].
Turning to `Cc1cccc(CC(C)NC(=O)c2cc(COc3ccc(C)c(C)c3)on2)n1` (configuration not stated), the cell number change was -27.2%.
For the compound `COc1ccc2cc(C(C)C(=O)OC(C)C)ccc2c1` (configuration not stated), the cell number change is -39.6%. The AC50 under setting [1] is 18.4 µM [falling, single point]. Under setting [2], the AC50 was 29.1 µM [falling, single point].
As for `O=C(c1cccc([N+](=O)[O-])c1)N1CCN(S(=O)(=O)N2CCCCC2)CC1`, the cell number change is -11.7%. Moreover, under setting [1], the AC50 was 0.058 µM [falling, full curve, poor fit].
Consider `COc1ccc(-c2csc3[nH]c(=S)n(-c4ccccc4)c(=O)c23)cc1OC`, for which the cell number change was -0.862%.
In the case of `CC1CN(c2ccc([N+](=O)[O-])cc2C#N)CC(C)O1` (configuration not stated), the cell number change came out at 38.2%. In addition, under setting [1], the AC50 is 29.1 µM [rising, single point].
For the compound `CCCc1cc(C(N)=O)c(NC(C)=O)s1`, the cell number change was found to be 2.43%.
As for `Cc1ccc(N(CC(=O)NCc2cccs2)S(=O)(=O)c2cccs2)cc1`, the AC50 under setting [1] was 0.291 µM [rising, partial curve, poor fit] and the concentration at half-maximal activity (AC50) under setting [2] is 0.0259 µM [falling, full curve, poor fit].
Regarding `O=S(=O)(Nc1ccc(Br)cn1)c1cccs1`, the cell number change was found to be 48.7%. The AC50 under setting [1] was 16.4 µM [rising, partial curve, poor fit]. In addition, the AC50 under setting [2] is 16.4 µM [rising, single point].
On to `Cc1ccc(S(=O)(=O)N2CC3(C)CN(S(=O)(=O)c4ccc(C)cc4)CC(C)(C2)C3O)cc1` (configuration not stated), for which the cell number change was found to be 5.71%. Further, the AC50 under setting [2] is 2.06 µM [rising, full curve, poor fit].
`Cc1cc(Nc2cccc(F)c2)nc(NCc2ccccc2)n1`: the cell number change is -63.9%. The concentration at half-maximal activity (AC50) under setting [1] is 2.31 µM [falling, partial curve]. Further, under setting [2], the AC50 was 4.11 µM [falling, partial curve].
Take `N#C/C(=C\c1ccc(OCCN2CCOCC2)cc1)C(=O)Nc1ccc(S(N)(=O)=O)cc1`: the cell number change is -0.293%. In addition, under setting [2], the AC50 was 6.51 µM [rising, partial curve, poor fit].
Turning to `O=C1c2ccccc2S(=O)(=O)N1CCOc1ccccc1`, the cell number change amounted to 0.4%.
